{"source": "paper PMC5996148", "test_in_all_cases": "protein microarray (ProtoArray v5.0), streptavidin-Alexa Fluor 647", "conditions_in_all_cases": "3'-biotin; 20 mM Tris (pH 7.5), 5 mM MgCl2, 100 mM KCl, 0.1% Tween-20, A/T-rich and random oligonucleotide blockers; temperature not stated; high values mean tight binding", "key": {"EMP3 (human)": {"tested_on": "EMP3 (human)"}, "ENO2 (human)": {"tested_on": "ENO2 (human)"}, "ENO3 (human)": {"tested_on": "ENO3 (human)"}, "ENOPH1 (human)": {"tested_on": "ENOPH1 (human)"}, "ENPP1 (human)": {"tested_on": "ENPP1 (human)"}, "ENTPD1 (human)": {"tested_on": "ENTPD1 (human)"}, "EP400NL (human)": {"tested_on": "EP400NL (human)"}, "EPHA3 (human)": {"tested_on": "EPHA3 (human)"}, "EPM2A (human)": {"tested_on": "EPM2A (human)"}, "EPM2AIP1 (human)": {"tested_on": "EPM2AIP1 (human)"}, "EPO (human)": {"tested_on": "EPO (human)"}, "ERAS (human)": {"tested_on": "ERAS (human)"}, "ERBB2IP (human)": {"tested_on": "ERBB2IP (human)"}, "ERC1 (human)": {"tested_on": "ERC1 (human)"}, "ERCC1 (human)": {"tested_on": "ERCC1 (human)"}, "ERCC6L (human)": {"tested_on": "ERCC6L (human)"}, "ERG (human)": {"tested_on": "ERG (human)"}, "ERGIC1 (human)": {"tested_on": "ERGIC1 (human)"}, "ERGIC3 (human)": {"tested_on": "ERGIC3 (human)"}, "ERP29 (human)": {"tested_on": "ERP29 (human)"}}, "note": "The list shows a part of the results.", "data": [{"sequence": "GGGAGGCTGAGGCAGG [G4-1 biotinylated (PQS2)]", "values": [{"measurement": "binding signal", "setting": "EMP3 (human)", "value": -0.319, "unit": "z-score"}, {"measurement": "binding signal", "setting": "ENO2 (human)", "value": -0.335, "unit": "z-score"}, {"measurement": "binding signal", "setting": "ENO3 (human)", "value": -0.28, "unit": "z-score"}, {"measurement": "binding signal", "setting": "ENOPH1 (human)", "value": -0.254, "unit": "z-score"}, {"measurement": "binding signal", "setting": "ENPP1 (human)", "value": -0.304, "unit": "z-score"}, {"measurement": "binding signal", "setting": "ENTPD1 (human)", "value": -0.328, "unit": "z-score"}, {"measurement": "binding signal", "setting": "EP400NL (human)", "value": -0.356, "unit": "z-score"}, {"measurement": "binding signal", "setting": "EPHA3 (human)", "value": -0.33, "unit": "z-score"}, {"measurement": "binding signal", "setting": "EPM2A (human)", "value": -0.319, "unit": "z-score"}, {"measurement": "binding signal", "setting": "EPM2AIP1 (human)", "value": -0.3, "unit": "z-score"}, {"measurement": "binding signal", "setting": "EPO (human)", "value": -0.283, "unit": "z-score"}, {"measurement": "binding signal", "setting": "ERAS (human)", "value": -0.299, "unit": "z-score"}, {"measurement": "binding signal", "setting": "ERBB2IP (human)", "value": -0.301, "unit": "z-score"}, {"measurement": "binding signal", "setting": "ERC1 (human)", "value": -0.261, "unit": "z-score"}, {"measurement": "binding signal", "setting": "ERCC1 (human)", "value": -0.349, "unit": "z-score"}, {"measurement": "binding signal", "setting": "ERCC6L (human)", "value": -0.352, "unit": "z-score"}, {"measurement": "binding signal", "setting": "ERG (human)", "value": -0.337, "unit": "z-score"}, {"measurement": "binding signal", "setting": "ERGIC1 (human)", "value": -0.34, "unit": "z-score"}, {"measurement": "binding signal", "setting": "ERGIC3 (human)", "value": -0.317, "unit": "z-score"}, {"measurement": "binding signal", "setting": "ERP29 (human)", "value": -0.308, "unit": "z-score"}]}]}
